# Experimental data from patent US12564589B2, “Methods for treating cancer, reducing side effects of cancer treatment, and preventing the recurrence of cancer” (Florida State University Research Foundation, Inc., priority 2024, dated 2026).
# Test system: patient derived H3.3K27M mutant DIPG cells
# Test: Cell survival assay in patient derived H3.3K27M mutant DIPG cells
# Format: cell-based, human
# Details: 75 nM for 7 days
# Method: Patient derived glioblastoma cells carrying either wild type (WT) H3.3 or the H3.3 K27M mutant were either left untreated (UT) or treated with 75 nM Vorinostat (Vor) for 16 hours before harvesting them, acid extracting total histones and processing them for Western blotting using antibodies specific to the indicated acetylated (Ac) histones. Ponceau staining of the total histones is shown as a loading control. […] The indicated cells were either left untreated or treated with 75 nM of the FDA approved HDACi Vorinostat (Vor; trade name Zolinza) for 7 days before counting the surviving cells. The structure of Vor is also shown. […] The indicated cells were either left untreated or treated with a very low dose of Vor (10 nM) either with or without a low 1 Gy dose of radiation and surviving cells were counted one week later. […]
# Except for the viability assays performed in FIGS. 1A-1G that were scored by flow cytometry using the violet fluorescent Live/Dead cell staining kit (Invitrogen) following the manufacturer's instructions, all the remaining viability assays were performed as following. […] The surviving cells were then counted on a Beckman Coulter particle and size analyzer, typically set to count all particles with a size greater than 8 μm (but was adjusted as needed based on cell size for different cell types). […]
smiles,measurement,value
O=C(CCCCCCC(=O)Nc1ccccc1)NO [Vorinostat],killing of H3.3 K27M mutant DIPG cells,specifically kills
